Source: the supplement of paper PMC10338343
± gives the standard deviation. This is a selection; strong and weak results do not stand in their true shares. Many entries were measured with a wide error.
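Further: 1 nM active piRISC with 0.1 nM target library at 33 °C single turnover.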

These sequences were tested on MIWI (PIWIL1) piRISC loaded with piRNA #1 (30 nt) (assay: pre-steady-state target cleavage rate (min^-1); MIWI and MILI are mouse PIWI proteins and EfPiwi is from a freshwater sponge; tags in brackets are library labels; higher = faster piRNA-guided slicing of the target). Conditions: guide: piRNA #1 5'p-UGAGGUAGUAGGUUGUAUAGUAUCCAGAGG; auxiliary factor: 500 nM mouse GTSF1.
Method in brief: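 For Cleave-'n-Seq, a transcribed, DNA-blocked target RNA library […] met 1 nM active affinity-purified piRISC with one synthetic guide at 33 °C for 0–8 or 0–960 min in HEPES–potassium acetate buffer, with or without 500 nM GTSF1 partner protein. Uncleaved targets were sequenced and normalised to depth and weakly complementary targets, with three trials pooled and k3 capped at 0.0001 min^-1. A burst-and-steady-state fit supplied the pre-steady-state cleavage rate.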
In the case of GGUCUGGAUACUAUACAGACCUACUACCUCA, the “pre-steady-state target cleavage rate” value is reported as 0.00138 ± 0.007. In the case of GGAGACCUAUGAUAUGUAGGAACUACCUCA, the “pre-steady-state target cleavage rate” value is reported as 0.000234 ± 0.013. GGAGUGCAUACUAUACAACCUACUACGUCA was tested, and the “pre-steady-state target cleavage rate” value was 0.629 ± 0.053. For GGAGACCUAUGUAUACAACCUACUAGGACA, the “pre-steady-state target cleavage rate” value was 0.000374 ± 0.015. For GGAGACCUAUGAUAUGUUGCUACUCCUCA, the “pre-steady-state target cleavage rate” value was 0.000419 ± 0.0083. With GGAGACCUAUGAUAUGUUGCUACUACCGCA the “pre-steady-state target cleavage rate” value was 0.000968 ± 0.0073. With GGACUGGAUACUAUACAACCUAGUUCCUCA the “pre-steady-state target cleavage rate” value was 0.000729 ± 0.0058. In the case of GGAGACCUAUGAUAUGUACCUUCUACGUCA, the “pre-steady-state target cleavage rate” value is reported as 0.000149 ± 0.021. With GGAGACCUAUGAUAACAACCUACUGACCUCA the “pre-steady-state target cleavage rate” value was 0.000987 ± 0.0055. GGAGACCUAUGAAUACUAGCUACUACCUCA was tested, and the “pre-steady-state target cleavage rate” value was < 0.0001. With GCUCUCGAUACUAUACAACCUACAACCUCA the “pre-steady-state target cleavage rate” value was 1.01 ± 0.078. For GGACUGGAUACUAUACAAUCCUACUACCUCA, the “pre-steady-state target cleavage rate” value was 0.000411 ± 0.023. “GGAGACCUAUGAUUACAACCUACUACCUCG [g2:g17:cont:t1G]” was tested, and the “pre-steady-state target cleavage rate” value was 0.00188 ± 0.0037. With GGAGACCUAUGAAUACAACCUACUCACCUCA the “pre-steady-state target cleavage rate” value was 0.00166 ± 0.0031. With GGAGACCUAUGAUAUGUUGGUACAUACCUCA the “pre-steady-state target cleavage rate” value was 0.000533 ± 0.01. For CCUCUGGAUACUAUACAACCUACUACACUCA, the “pre-steady-state target cleavage rate” value was 0.874 ± 0.073.
